Laboratory results: the supplement of paper PMC9233669
Variants at the floor of the assay are shown more often than the library holds them.

Columns and labels:
biotinyl-Trp-oxazolone = assay: self-aminoacylation, catalytic enhancement (BWO) (fold over background); higher = more active; k-Seq, kA / k0A0; sequences stand for … in GGGAAUGGAUCCACAUCUACGAAUUC…UUCACUGCAGACUUGACGAAGCUG
Outline: (§1)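 Catalytic enhancement equals the median kA over the uncatalyzed rate, the latter read from the low-activity peak of a bimodal Gaussian fit. Values of kA came from fitting each sequence's fraction reacted to a pseudo-first-order model, with 1000 bootstraps. Reacted RNA was captured with streptavidin and quantified by triplicate qPCR and Illumina sequencing after 90 minutes at room temperature with 2–1250 μM biotinyl-aminoacyl-oxazolone and 0.43 μM mutagenized RNA pools bearing a 21-nt variable region.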

biotinyl-Leu-oxazolone = assay: self-aminoacylation, catalytic enhancement (BLO) (fold over background); higher = more active; k-Seq, kA / k0A0; sequences stand for … in GGGAAUGGAUCCACAUCUACGAAUUC…UUCACUGCAGACUUGACGAAGCUG
Outline: as §1

biotinyl-Val-oxazolone = assay: self-aminoacylation, catalytic enhancement (BVO) (fold over background); higher = more active; k-Seq, kA / k0A0; sequences stand for … in GGGAAUGGAUCCACAUCUACGAAUUC…UUCACUGCAGACUUGACGAAGCUG
Outline: as §1

biotinyl-Ile-oxazolone = assay: self-aminoacylation, catalytic enhancement (BIO) (fold over background); higher = more active; k-Seq, kA / k0A0; sequences stand for … in GGGAAUGGAUCCACAUCUACGAAUUC…UUCACUGCAGACUUGACGAAGCUG
Outline: as §1

biotinyl-Met-oxazolone = assay: self-aminoacylation, catalytic enhancement (BMO) (fold over background); higher = more active; k-Seq, kA / k0A0; sequences stand for … in GGGAAUGGAUCCACAUCUACGAAUUC…UUCACUGCAGACUUGACGAAGCUG
Outline: as §1

biotinyl-Phe-oxazolone = assay: self-aminoacylation, catalytic enhancement (BFO) (fold over background); higher = more active; k-Seq, kA / k0A0; sequences stand for … in GGGAAUGGAUCCACAUCUACGAAUUC…UUCACUGCAGACUUGACGAAGCUG
Outline: as §1

Sequence | self-aminoacylation (biotinyl-Trp-oxazolone) | self-aminoacylation (biotinyl-Leu-oxazolone) | self-aminoacylation (biotinyl-Val-oxazolone) | self-aminoacylation (biotinyl-Ile-oxazolone) | self-aminoacylation (biotinyl-Met-oxazolone) | self-aminoacylation (biotinyl-Phe-oxazolone)
CCACACUUCCAGCAAUCGCUC [Fam1B.1 aminoacylation ribozyme variant] | 1.59 | 1.35 | 1.83 | 1.69 | 1.54 | 1.22
CCACACUUCCAGCAAUCGGUA [Fam1B.1 aminoacylation ribozyme variant] | 1.07 | 0.722 | 1.23 | 1.25 | 1.04 | 0.863
CCACACUUCGCGCAAUCGGUC [Fam1B.1 aminoacylation ribozyme variant] | 2.77 | 2.41 | 2.51 | 2.21 | 1.68 | 10.5
CCACACUUCGUGCAAUCGGUC [Fam1B.1 aminoacylation ribozyme variant] | 0.82 | 0.868 | 1.42 | 1 | 1.19 | 1.56
CCACACUUCUAGCAAACGGUC [Fam1B.1 aminoacylation ribozyme variant] | 0.594 | 0.414 | 0.652 | 0.609 | 0.451 | 0.997
CCACACUUCUAGUAAUCGGUC [Fam1B.1 aminoacylation ribozyme variant] | 0.464 | 0.661 | 0.789 | 0.782 | 0.619 | 0.781
CCACACUUGAAGCAAGCGGUC [Fam1B.1 aminoacylation ribozyme variant] | 0.689 | 0.883 | 0.852 | 1 | 0.849 | 0.551
CCACACUUGAAGCAUUCGGUC [Fam1B.1 aminoacylation ribozyme variant] | 2.09 | 1.76 | 2 | 1.47 | 1.73 | 3.66
CCACACUUGAAUCAAUCGGUC [Fam1B.1 aminoacylation ribozyme variant] | 0.774 | 0.719 | 0.892 | 0.868 | 0.659 | 0.753
CCACACUUUAAGAAAUCGGUC [Fam1B.1 aminoacylation ribozyme variant] | 0.727 | 0.782 | 0.663 | 0.841 | 0.607 | 0.835
CCACACUUUAAGCAAUCCGUC [Fam1B.1 aminoacylation ribozyme variant] | 0.644 | 0.686 | 1.16 | 0.966 | 0.692 | 0.861
CCACACUUUAAGCAAUCGGUC [Fam1B.1 aminoacylation ribozyme variant] | 0.728 | 0.697 | 0.911 | 0.863 | 0.678 | 1.18
CCACACUUUAAGCACUCGGUC [Fam1B.1 aminoacylation ribozyme variant] | 0.647 | 0.646 | 1 | 0.881 | 0.791 | 0.689
CCACACUUUACGCAAUCGGUC [Fam1B.1 aminoacylation ribozyme variant] | 1.11 | 0.946 | 1.03 | 0.976 | 0.856 | 0.86
CCACAGUUCAAGCAACCGGUC [Fam1B.1 aminoacylation ribozyme variant] | 1.26 | 1.33 | 1.19 | 1.15 | 0.777 | 0.887
CCACAGUUCAAGCGAUCGGUC [Fam1B.1 aminoacylation ribozyme variant] | 0.913 | 1.9 | 1.75 | 1.32 | 1.59 | 1.5
CCACAGUUCAAGUAAUCGGUC [Fam1B.1 aminoacylation ribozyme variant] | 1.51 | 1 | 1.1 | 1.04 | 1.01 | 1.43
CCACAUUACAAGCAAUCGGUC [Fam1B.1 aminoacylation ribozyme variant] | 1.15 | 1.04 | 1.21 | 1.3 | 1.16 | 1.05
CCACAUUUCAAGCAAUCGGUA [Fam1B.1 aminoacylation ribozyme variant] | 1.25 | 1.57 | 1.64 | 1.75 | 1.45 | 0.971
CCACAUUUCAUGCAAUCGGUC [Fam1B.1 aminoacylation ribozyme variant] | 1.22 | 1.34 | 1.32 | 1.34 | 1.17 | 1.39
CCACAUUUCGAGCAAUCGGUC [Fam1B.1 aminoacylation ribozyme variant] | 1.48 | 1.62 | 1.52 | 1.75 | 1.34 | 1.04
CCACCCUUCAAGCGAUCGGUC [Fam1B.1 aminoacylation ribozyme variant] | 1.64 | 1.58 | 1.65 | 1.21 | 1.3 | 1.06
CCACCCUUCUAGCAAUCGGUC [Fam1B.1 aminoacylation ribozyme variant] | 0.867 | 0.819 | 1 | 1.1 | 0.971 | 0.95
CCACCCUUUAAGCAAUCGGUC [Fam1B.1 aminoacylation ribozyme variant] | 0.888 | 0.983 | 1.21 | 1.16 | 0.892 | 1.34
CCACGCUGCAAGCAAUCGGUC [Fam1B.1 aminoacylation ribozyme variant] | 1.54 | 0.911 | 1.22 | 1.11 | 0.874 | 1.62
CCACGCUUCAAGCAACCGGUC [Fam1B.1 aminoacylation ribozyme variant] | 1.03 | 0.701 | 0.947 | 0.806 | 0.822 | 1.24

Sequence | self-aminoacylation (biotinyl-Trp-oxazolone) | self-aminoacylation (biotinyl-Leu-oxazolone) | self-aminoacylation (biotinyl-Val-oxazolone) | self-aminoacylation (biotinyl-Ile-oxazolone) | self-aminoacylation (biotinyl-Met-oxazolone) | self-aminoacylation (biotinyl-Phe-oxazolone)
CCACGCUUCAAGCAAUUGGUC [Fam1B.1 aminoacylation ribozyme variant] | 0.704 | 0.538 | 0.516 | 0.551 | 0.528 | 1.34
CCACGCUUCAAGCUAUCGGUC [Fam1B.1 aminoacylation ribozyme variant] | 0.819 | 0.687 | 0.91 | 0.755 | 0.549 | 0.707
CCACGCUUCGAGCAAUCGGUC [Fam1B.1 aminoacylation ribozyme variant] | 1.14 | 0.853 | 1.43 | 1.08 | 0.984 | 0.943
CCACGCUUCUAGCAAUCGGUC [Fam1B.1 aminoacylation ribozyme variant] | 0.578 | 0.725 | 0.847 | 0.779 | 0.549 | 0.578
CCACUCUUCAAGCGAUCGGUC [Fam1B.1 aminoacylation ribozyme variant] | 1.57 | 0.926 | 1.24 | 1.25 | 1.18 | 1.33
CCACUUCAAACAAUCGGUUUG [Fam1A.1 aminoacylation ribozyme variant] | 39.5 | 2.57 | 1.83 | 1.39 | 1.37 | 80.3
CCACUUCAAACAAUUGGUCUG [Fam1A.1 aminoacylation ribozyme variant] | 1.26 | 1.02 | 0.957 | 1.06 | 0.959 | 1.85
CCACUUCAAACCAUCGGUCUG [Fam1A.1 aminoacylation ribozyme variant] | 1.16 | 1.24 | 1.29 | 1.31 | 0.947 | 1.49
CCACUUCACACAAUCGGUCUG [Fam1A.1 aminoacylation ribozyme variant] | 0.937 | 1.02 | 1.51 | 1.28 | 1.31 | 1.68
CCAGACUUCAAGCAAUCGGAC [Fam1B.1 aminoacylation ribozyme variant] | 1.58 | 1.17 | 1.45 | 1.3 | 1.17 | 1.78
CCAGACUUCUAGCAAUCGGUC [Fam1B.1 aminoacylation ribozyme variant] | 0.774 | 0.921 | 0.965 | 1.11 | 0.901 | 0.821
CCAUACCUCAAGCAAUCGGUC [Fam1B.1 aminoacylation ribozyme variant] | 1.1 | 1.12 | 1.4 | 1.28 | 0.988 | 1.62
CCAUACUUCAAGCAAACGGUC [Fam1B.1 aminoacylation ribozyme variant] | 0.61 | 0.639 | 0.81 | 0.703 | 0.748 | 0.805
CCAUACUUCAAGCAAUCGCUC [Fam1B.1 aminoacylation ribozyme variant] | 0.974 | 1.81 | 1.2 | 1.29 | 1.2 | 0.755
CCAUACUUCAAGCAAUCGGGC [Fam1B.1 aminoacylation ribozyme variant] | 1.15 | 1.61 | 1.73 | 1.95 | 1.53 | 2.06
CCAUACUUCGAGCAAUCGGUC [Fam1B.1 aminoacylation ribozyme variant] | 1.26 | 1.18 | 1.33 | 1.19 | 0.961 | 1.19
CCCCACUUCAAGCAAUCUGUC [Fam1B.1 aminoacylation ribozyme variant] | 1.19 | 0.451 | 0.718 | 0.526 | 0.504 | 1.97
CCGCACUUCAAGCAGUCGGUC [Fam1B.1 aminoacylation ribozyme variant] | 1.4 | 1.15 | 1.51 | 1.08 | 1.26 | 1.44
CCGCACUUCUAGCAAUCGGUC [Fam1B.1 aminoacylation ribozyme variant] | 0.775 | 0.831 | 1.22 | 1.06 | 0.83 | 0.997
CCGCACUUGAAGCAAUCGGUC [Fam1B.1 aminoacylation ribozyme variant] | 1.29 | 1.23 | 1.61 | 1.29 | 0.942 | 1.18
CCGCACUUUAAGCAAUCGGUC [Fam1B.1 aminoacylation ribozyme variant] | 1.25 | 1.05 | 1.05 | 1.07 | 0.894 | 1.17
CCUCACUUCAAGCAAUUGGUC [Fam1B.1 aminoacylation ribozyme variant] | 0.673 | 0.506 | 0.606 | 0.654 | 0.562 | 1.67
CGACAAUUCAAGCAAUCGGUC [Fam1B.1 aminoacylation ribozyme variant] | 1.06 | 0.978 | 1.11 | 1.27 | 0.921 | 1.11
CGACACUUCAAACAAUCGGUC [Fam1B.1 aminoacylation ribozyme variant] | 12.5 | 1.71 | 1.64 | 1.23 | 1.31 | 22.9
CGACACUUCAAGCAAUAGGUC [Fam1B.1 aminoacylation ribozyme variant] | 0.534 | 0.597 | 0.587 | 0.685 | 0.542 | 1.01
